Values from PubChem BioAssay AID1259267 (Sanger Institute, 2017).

Aim: 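Which kinases and bowel-cancer genes GP5D cells need, with or without anchor drugs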 (primary screen)
System: human GP5D colorectal cancer cells
Reagent: siRNA pool against human genes
Challenge: anchor drugs at low dose: BYL719 1 µM, cetuximab 5 µg/ml, trametinib 10 nM, or DMSO vehicle
Measurement: 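Mean replicate viability versus non-targeting pool, given as knock-down-alone robust z-score, DMSO fraction, and synergy with low-dose BYL719, cetuximab or trametinib (1 µM, 5 µg/ml, 10 nM)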
Reading the numbers: robust z-score, knock-down alone and viability with DMSO: higher = more viable cells; synergy score with trametinib and synergy score with BYL719 and synergy score with cetuximab: higher = stronger synthetic lethal synergy with drug
Rule for the call: 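a robust z-score below -3 for the knock-down by itself makes a gene active, i.e. essential alone; synergy scores are ignored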
Meaning of the calls: active = essential alone; inactive = not essential
In all, the deposit lists 794 reagents; shown is a random part of them. Over the whole deposit, 9 (1.1%) were called active. 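Viability capped at 1; calls reflect loss of viability from knock-down alone, not synergy with drugs.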 Not given: the amount of reagent, the time to read-out.

target | robust z-score, knock-down alone | viability with DMSO (fraction of control) | synergy score with trametinib | synergy score with BYL719 | synergy score with cetuximab | Outcome
AURKB (aurora kinase B) | 0.817 | 1 | 0.00119 | -0.0032 | 0.189 | inactive
DYRK1A | 0.817 | 1 | 0.224 | 0.000159 | -0.142 | inactive
AK4 (adenylate kinase 4) | -0.396 | 0.743 | -0.0501 | -0.375 | -0.186 | inactive
INSRR (insulin receptor related receptor) | 0.521 | 0.937 | 0.0891 | -0.245 | 0.0488 | inactive
RFK (riboflavin kinase) | 0.817 | 1 | -0.0123 | -0.294 | -0.142 | inactive
SIK3 (SIK family kinase 3) | 0.817 | 1 | -0.182 | -0.361 | -0.142 | inactive
AKAP9 (A-kinase anchoring protein 9) | 0.594 | 0.953 | -0.126 | -0.102 | -0.0872 | inactive
PRKD2 (protein kinase D2) | -2.78 | 0.238 | -0.0934 | -0.246 | -0.0992 | inactive
TNIK (TRAF2 and NCK interacting kinase) | 0.332 | 0.897 | 0.186 | -0.0554 | 0.0801 | inactive
ADGRL2 (adhesion G protein-coupled receptor L2) | -0.429 | 0.736 | 0.12 | -0.26 | -0.0755 | inactive
PRKAB2 (protein kinase AMP-activated non-catalytic subunit beta 2) | 0.817 | 1 | 0.208 | 0.0666 | 0.138 | inactive
SGK1 (serum/glucocorticoid regulated kinase 1) | -0.333 | 0.756 | -0.0717 | -0.148 | -0.29 | inactive
MAP3K3 (mitogen-activated protein kinase kinase kinase 3) | -1.07 | 0.6 | -0.114 | -0.23 | 0.0582 | inactive
AURKC (aurora kinase C) | 0.209 | 0.871 | -0.152 | -0.1 | -0.252 | inactive
CSNK1A1L (casein kinase 1 alpha 1 like) | 0.817 | 1 | 0.221 | -0.233 | -0.0502 | inactive
KRAS (KRas proto-oncogene, GTPase) | -1.99 | 0.404 | -0.1 | -0.122 | -0.032 | inactive
RIOK2 (RIO kinase 2) | 0.701 | 0.975 | 0.182 | -0.184 | -0.0409 | inactive
CDK1 (cyclin dependent kinase 1) | 0.817 | 1 | -0.0534 | -0.361 | -0.142 | inactive
PIM2 (Pim-2 proto-oncogene, serine/threonine kinase) | 0.328 | 0.896 | 0.358 | 0.0542 | 0.19 | inactive
BCOR (BCL6 corepressor) | 0.817 | 1 | 0.234 | 0.111 | 0.13 | inactive
CKS2 (CDC28 protein kinase regulatory subunit 2) | 0.817 | 1 | -0.16 | -0.166 | -0.142 | inactive
ACVR1B (activin A receptor type 1B) | 0.158 | 0.86 | 0.128 | -0.1 | -0.0269 | inactive
PCK1 (phosphoenolpyruvate carboxykinase 1) | 0.119 | 0.852 | 0.215 | -0.0113 | -0.0384 | inactive
HK3 (hexokinase 3) | 0.15 | 0.859 | -0.203 | -0.371 | -0.263 | inactive
GNE | 0.817 | 1 | 0.102 | -0.0433 | -0.0927 | inactive
NME5 (NME/NM23 family member 5) | 0.817 | 1 | 0.237 | -0.0989 | 0.0531 | inactive
WEE1 (WEE1 G2 checkpoint kinase) | -2.88 | 0.217 | -0.0212 | -0.185 | -0.0368 | inactive
MAPK13 (mitogen-activated protein kinase 13) | 0.817 | 1 | -0.126 | -0.0739 | -0.0845 | inactive
MARK2 (microtubule affinity regulating kinase 2) | -0.2 | 0.784 | 0.0917 | -0.211 | 0.0103 | inactive
MED24 (mediator complex subunit 24) | 0.817 | 1 | 0.147 | -0.127 | -0.142 | inactive
PRKY (protein kinase Y-linked (pseudogene)) | 0.817 | 1 | 0.0175 | -0.195 | -0.142 | inactive
TAOK2 (TAO kinase 2) | 0.0848 | 0.845 | -0.0698 | -0.234 | -0.0856 | inactive
MAST1 (microtubule associated serine/threonine kinase 1) | 0.64 | 0.963 | 0.123 | -0.206 | -0.174 | inactive
BRD3 (bromodomain containing 3) | 0.803 | 0.997 | 0.209 | -0.0359 | 0.254 | inactive
EPHA4 (EPH receptor A4) | -0.227 | 0.779 | -0.24 | -0.226 | -0.0837 | inactive
CTNNB1 (catenin beta 1) | -0.288 | 0.766 | -0.317 | -0.168 | -0.181 | inactive
NRAS (NRAS proto-oncogene, GTPase) | 0.0639 | 0.84 | 0.259 | -0.225 | -0.222 | inactive
ABL2 (ABL proto-oncogene 2, non-receptor tyrosine kinase) | -0.189 | 0.787 | -0.193 | -0.295 | -0.146 | inactive
STRADA (STE20 related adaptor alpha) | -1.43 | 0.525 | -0.15 | -0.25 | -0.157 | inactive
PRKAG1 (protein kinase AMP-activated non-catalytic subunit gamma 1) | 0.0671 | 0.841 | -0.0604 | -0.157 | -0.278 | inactive
PRKAR1B (protein kinase cAMP-dependent type I regulatory subunit beta) | 0.817 | 1 | -0.0122 | -0.158 | -0.142 | inactive
DMPK (DM1 protein kinase) | 0.521 | 0.937 | -0.0723 | 0.01 | -0.00711 | inactive
KDR (kinase insert domain receptor) | 0.817 | 1 | -0.0358 | -0.232 | -0.142 | inactive
AXIN2 (axin 2) | 0.817 | 1 | -0.105 | -0.194 | -0.142 | inactive
PRKCE (protein kinase C epsilon) | 0.684 | 0.972 | -0.162 | -0.052 | -0.153 | inactive
DDR1 (discoidin domain receptor tyrosine kinase 1) | -1.02 | 0.611 | 0.226 | -0.0812 | 0.019 | inactive
TESK1 (testis associated actin remodelling kinase 1) | -0.274 | 0.769 | 0.327 | -0.127 | -0.0565 | inactive
CLK4 (CDC like kinase 4) | 0.72 | 0.979 | 0.175 | -0.136 | -0.137 | inactive
MKNK1 (MAPK interacting serine/threonine kinase 1) | 0.817 | 1 | -0.166 | -0.361 | -0.142 | inactive
PEAK1 (pseudopodium enriched atypical kinase 1) | 0.817 | 1 | 0.136 | 0.0758 | -0.0722 | inactive
